Tests used:
T47D = experiment: CellTiterGlo luminescent cell viability assay, T47D; details: (EC50 BJ)/(EC50 T47D)
MCF07 = experiment: CellTiterGlo luminescent cell viability assay, MCF07; details: (EC50 BJ)/(EC50 MCF07)
SUM149 = experiment: CellTiterGlo luminescent cell viability assay, SUM149; details: (EC50 BJ)/(EC50 SUM149)
MDA-MB231 = experiment: CellTiterGlo luminescent cell viability assay, MDA-MB231; details: (EC50 BJ)/(EC50 MDA-MB231)
[1] = test system: non-tumorigenic cell line BJ; experiment: CellTiterGlo cell viability assay, non-neoplastic cell line BJ; details: range over the four cancer cell lines

Compound	Normalized Therapeutic index T47D (T47D)	Normalized Therapeutic index MCF07 (MCF07)	Normalized Therapeutic index SUM149 (SUM149)	Normalized Therapeutic index MDA-MB231 (MDA-MB231)	TI: Therapeutic index = (EC50 non-neoplastic cell line BJ)/(EC50 cancer cell line) [1]
CC(C)c1cc2c(cc1O)[C@@]1(C)CCCC(C)(C)[C@@H]1CC2 [Compound 1, ferruginol]	0.5	2.6	1	6	–
CC(C)c1cc2c(cc1O)[C@@]1(C)CCC[C@@](C)(CN)[C@@H]1CC2 [Compound 2, 12-hydroxydehydroabietylamine]	1.5	7.5	17	14	1–17
CC(C)c1cc2c(cc1O)[C@@]1(C)CCC[C@@](C)(CN3C(=O)c4ccccc4C3=O)[C@@H]1CC2 [Compound 6, 18-(phthalimid-2-yl)ferruginol]	2.5	5.7	16	9	2–17
COC(=O)[C@]1(C)CCC[C@]2(C)C3=C(C=C(C(C)C)C(=O)C3=O)CC[C@@H]12 [Compound 7, Methyl 11,12-Dioxo-abieta-8,13-dien-18-oate]	4	6.7	43	14	4–44
CC(C)C1=CC2=C(C(=O)C1=O)[C@@]1(C)CCC[C@@](C)(CN3C(=O)c4ccccc4C3=O)[C@@H]1CC2 [Compound 8, 11,12-Dioxo-N,N-(phthaloyl)dehydroabietylamine]	1.9	15	23	12	1–24
COC(=O)[C@]1(C)CCC[C@]2(C)c3c(cc(C(C)C)c(O)c3O)CC[C@@H]12 [Compound 9, Methyl 11,12-Dihydroxy-dehydroabietate]	3.9	1.1	1.1	6	–
CC(C)c1cc2c(c(O)c1O)[C@@]1(C)CCC[C@@](C)(CN3C(=O)c4ccccc4C3=O)[C@@H]1CC2 [Compound 10, 11,12-Dihydroxy-N,N-(phthaloyl)dehydroabietylamine]	3.9	7	18	11	4–18

Reference: paper PMC9953967, “Discovery of Novel Bioactive Tanshinones and Carnosol Analogues against Breast Cancer” (Cancers, 2023)
